The source of these data is PMC4440769.

Amino acid sequences for entries named in this document (tags omitted).
UniProt Q9UHD2: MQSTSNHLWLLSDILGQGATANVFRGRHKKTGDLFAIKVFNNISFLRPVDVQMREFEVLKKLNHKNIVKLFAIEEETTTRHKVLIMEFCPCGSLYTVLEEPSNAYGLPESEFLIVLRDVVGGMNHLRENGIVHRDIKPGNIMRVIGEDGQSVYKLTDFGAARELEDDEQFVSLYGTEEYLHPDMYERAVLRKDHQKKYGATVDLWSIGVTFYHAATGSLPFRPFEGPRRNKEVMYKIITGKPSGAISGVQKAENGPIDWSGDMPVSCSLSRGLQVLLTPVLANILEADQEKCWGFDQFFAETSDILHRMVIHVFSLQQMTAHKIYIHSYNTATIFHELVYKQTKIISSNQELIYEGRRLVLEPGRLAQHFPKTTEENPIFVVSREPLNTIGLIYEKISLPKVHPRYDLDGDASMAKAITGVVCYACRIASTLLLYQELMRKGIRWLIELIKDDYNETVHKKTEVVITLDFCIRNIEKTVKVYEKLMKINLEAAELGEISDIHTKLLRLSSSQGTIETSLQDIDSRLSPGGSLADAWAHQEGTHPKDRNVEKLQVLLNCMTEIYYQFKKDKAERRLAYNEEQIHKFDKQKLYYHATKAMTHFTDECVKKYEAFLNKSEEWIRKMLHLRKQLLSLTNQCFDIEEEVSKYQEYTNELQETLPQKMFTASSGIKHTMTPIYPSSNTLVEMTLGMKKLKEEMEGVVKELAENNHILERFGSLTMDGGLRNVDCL
UniProt Q13489: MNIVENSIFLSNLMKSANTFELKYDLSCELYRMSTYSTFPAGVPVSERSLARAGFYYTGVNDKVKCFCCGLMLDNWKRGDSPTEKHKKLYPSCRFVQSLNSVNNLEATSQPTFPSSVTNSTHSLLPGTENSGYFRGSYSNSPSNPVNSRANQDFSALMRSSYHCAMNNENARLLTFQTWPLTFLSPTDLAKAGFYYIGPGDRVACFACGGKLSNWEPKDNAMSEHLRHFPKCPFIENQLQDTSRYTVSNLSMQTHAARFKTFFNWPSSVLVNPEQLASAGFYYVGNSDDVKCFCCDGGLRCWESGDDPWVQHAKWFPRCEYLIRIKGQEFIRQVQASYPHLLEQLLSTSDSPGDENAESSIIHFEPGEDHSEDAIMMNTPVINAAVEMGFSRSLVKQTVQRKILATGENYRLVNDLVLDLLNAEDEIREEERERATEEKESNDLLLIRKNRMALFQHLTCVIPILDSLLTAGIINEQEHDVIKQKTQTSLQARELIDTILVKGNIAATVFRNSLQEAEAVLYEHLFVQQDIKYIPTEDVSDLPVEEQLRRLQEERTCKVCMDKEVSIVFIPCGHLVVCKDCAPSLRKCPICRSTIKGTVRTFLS
UniProt Q96EP0: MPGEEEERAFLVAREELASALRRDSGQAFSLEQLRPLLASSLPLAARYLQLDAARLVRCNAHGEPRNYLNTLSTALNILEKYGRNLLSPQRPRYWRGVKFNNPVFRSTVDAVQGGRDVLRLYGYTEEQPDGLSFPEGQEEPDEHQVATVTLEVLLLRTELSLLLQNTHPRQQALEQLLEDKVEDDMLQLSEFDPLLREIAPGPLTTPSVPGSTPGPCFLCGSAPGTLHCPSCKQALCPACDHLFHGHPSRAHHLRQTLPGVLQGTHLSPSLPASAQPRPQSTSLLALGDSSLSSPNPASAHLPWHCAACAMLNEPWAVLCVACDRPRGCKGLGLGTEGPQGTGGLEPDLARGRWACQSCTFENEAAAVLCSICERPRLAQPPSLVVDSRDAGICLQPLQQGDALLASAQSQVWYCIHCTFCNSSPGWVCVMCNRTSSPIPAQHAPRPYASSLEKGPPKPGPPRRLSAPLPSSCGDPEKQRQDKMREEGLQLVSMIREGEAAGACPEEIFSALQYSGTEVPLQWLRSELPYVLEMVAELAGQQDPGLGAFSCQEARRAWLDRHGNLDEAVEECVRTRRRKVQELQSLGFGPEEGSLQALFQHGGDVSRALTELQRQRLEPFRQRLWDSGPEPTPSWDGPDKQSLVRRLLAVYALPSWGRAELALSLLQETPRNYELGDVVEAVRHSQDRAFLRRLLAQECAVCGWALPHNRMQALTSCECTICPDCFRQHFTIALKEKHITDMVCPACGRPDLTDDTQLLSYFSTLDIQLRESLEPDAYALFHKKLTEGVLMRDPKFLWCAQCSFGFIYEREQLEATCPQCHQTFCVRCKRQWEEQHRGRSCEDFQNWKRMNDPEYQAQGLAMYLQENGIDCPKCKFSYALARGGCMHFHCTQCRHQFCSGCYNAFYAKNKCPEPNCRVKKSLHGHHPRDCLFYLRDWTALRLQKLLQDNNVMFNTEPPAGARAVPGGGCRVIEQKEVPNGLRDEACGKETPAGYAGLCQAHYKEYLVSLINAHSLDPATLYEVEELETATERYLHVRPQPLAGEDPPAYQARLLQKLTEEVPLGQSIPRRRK
UniProt Q13114: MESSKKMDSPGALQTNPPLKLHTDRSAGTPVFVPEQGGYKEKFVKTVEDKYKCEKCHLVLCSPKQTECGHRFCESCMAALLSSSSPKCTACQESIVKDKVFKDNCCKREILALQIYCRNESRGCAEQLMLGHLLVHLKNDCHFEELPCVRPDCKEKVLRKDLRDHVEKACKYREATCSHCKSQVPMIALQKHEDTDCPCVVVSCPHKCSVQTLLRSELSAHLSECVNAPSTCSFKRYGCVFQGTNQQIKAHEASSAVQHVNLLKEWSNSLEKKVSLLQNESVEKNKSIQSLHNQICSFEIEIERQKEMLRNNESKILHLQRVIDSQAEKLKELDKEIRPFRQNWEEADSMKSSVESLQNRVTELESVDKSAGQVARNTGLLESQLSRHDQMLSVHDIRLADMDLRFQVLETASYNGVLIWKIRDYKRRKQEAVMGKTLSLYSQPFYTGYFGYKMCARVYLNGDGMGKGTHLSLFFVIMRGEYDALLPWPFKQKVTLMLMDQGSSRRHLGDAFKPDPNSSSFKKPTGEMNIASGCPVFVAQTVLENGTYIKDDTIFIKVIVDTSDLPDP

T1: FLAG-TRAF1 (UniProt Q13077)
T1 sequence: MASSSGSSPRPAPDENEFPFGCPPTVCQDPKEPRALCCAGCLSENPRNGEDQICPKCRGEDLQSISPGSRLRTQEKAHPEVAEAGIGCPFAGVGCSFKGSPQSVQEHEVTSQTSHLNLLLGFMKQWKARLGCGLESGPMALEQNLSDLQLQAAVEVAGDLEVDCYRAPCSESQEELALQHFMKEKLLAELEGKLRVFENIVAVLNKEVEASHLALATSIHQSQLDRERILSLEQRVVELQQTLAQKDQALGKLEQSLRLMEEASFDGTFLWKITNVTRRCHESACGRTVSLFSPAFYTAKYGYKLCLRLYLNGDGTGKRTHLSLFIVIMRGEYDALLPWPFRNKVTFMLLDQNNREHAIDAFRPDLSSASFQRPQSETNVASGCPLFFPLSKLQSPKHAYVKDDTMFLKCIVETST

B1: TANK (endogenous, 293) (protein, UniProt Q92844 1-425)
chain: MDKNIGEQLNKAYEAFRQACMDRDSAVKELQQKTENYEQRIREQQEQLSLQQTIIDKLKSQLLLVNSTQDNNYGCVPLLEDSETRKNNLTLDQPQDKVISGIAREKLPKVRRQEVSSPRKETSARSLGSPLLHERGNIEKTFWDLKEEFHKICMLAKAQKDHLSKLNIPDTATETQCSVPIQCTDKTDKQEALFKPQAKDDINRGAPSITSVTPRGLCRDEEDTSFESLSKFNVKFPPMDNDSTFLHSTPERPGILSPATSEAVCQEKFNMEFRDNPGNFVKTEETLFEIQGIDPIASAIQNLKTTDKTKPSNLVNTCIRTTLDRAACLPPGDHNALYVNSFPLLDPSDAPFPSLDSPGKAIRGPQQPIWKPFPNQDSDSVVLSGTDSELHIPRVCEFCQAVFPPSITSRGDFLRHLNSHFNGET

No constants are given. Whether binding was seen depends on the method and setting. In cells and extracts the contact can be indirect. A yes stands for co-enrichment or nearness to the bait. Other partners may have been found. Where a sequence is shown, tags or fusion partners need not be part of it.

The target of the first test is T1, FLAG-TRAF1. Description: affinity purification with mass spectrometry.
As to B1, the binding result was “binds”.

The target of the next test is T1, FLAG-TRAF1. Description: affinity purification with mass spectrometry. This is another data set of the same source.
On to “SQSTM1/P62 (endogenous, 293) (from UniProt Q13501 1-440)”, for which the binding result is “binds”.

As to “TBK1 (endogenous, 293) (from UniProt Q9UHD2 1-729)”, the binding result is “binds”.

With “cIAP2 (endogenous, 293) (from UniProt Q13489 1-604)”, the binding result was “binds”.

For “HOIP (endogenous, 293) (from UniProt Q96EP0 1-1072)”, the binding result is reported as “binds”.

On to “HOIL-1L (endogenous, 293) (from UniProt Q9BYM8-1 1-510)”, for which the binding entry was “binds”.

For the molecule “TRAF3 (endogenous, 293) (from UniProt Q13114 1-568)”, the binding result was “binds”.
